Values from PubChem BioAssay AID743454 (Peter MacCallum Cancer Centre, 2014)

Purpose: 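Knock-downs lowering viability or raising caspase 3/7 activity in vorinostat-treated resistant cells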 (primary screen)
Cell system: human HCT116-VR colon cancer cells, selected for vorinostat resistance
Knock-down reagent: siRNA pool against human genes, 40 nM siRNA pool
Time to read-out: vorinostat for 24 h, read-out about 72 h after transfection
Conditions: vorinostat at 2.5 µM final
Measured: 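Two measures, CellTiter-Fluor viability and luminescent caspase 3/7 activity, each as fold change against same-plate mock wells, mean of duplicates, then screen-wide robust z-score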
Reading the numbers: viability robust z-score: higher = more viable cells than screen typical; caspase robust z-score: higher = more caspase 3/7 activity than screen typical
Call rule: 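Hits are knock-downs in viability class RV1/RV2 or caspase class CA1/CA2, excluding ones that killed cells in the no-drug cell-count arm; hits then retested with single siRNAs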
The deposit covers about 18,000 reagents; below is an unselected part. 450 of them (2.5%) count as active. 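Single biological run; no consistent viability z cut-off exists, so the class columns, not z-scores, define the calls.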

Against BRINP1 (BMP/retinoic acid inducible neural specific 1) [SID152154722] the deposit lists viability hit class no change; caspase hit class no change; viability robust z-score 0.84; caspase robust z-score -0.61; inactive. For GLRX2 (glutaredoxin 2) [SID152152434], the values are viability hit class no change; caspase hit class no change; viability robust z-score 0.2; caspase robust z-score -0.44; inactive. Knock-down of SLC35G2 [SID152150458] gave: viability hit class no change; caspase hit class no change; viability robust z-score 0.13; caspase robust z-score -0.48; inactive. Against HYCC2 (hyccin PI4KA lipid kinase complex subunit 2) [SID152151423], the entry reads viability hit class no change; caspase hit class no change; viability robust z-score -1.16; caspase robust z-score -0.17; inactive. SLC66A1 [SID152153274] showed viability hit class no change; caspase hit class no change; viability robust z-score -0.85; caspase robust z-score -0.02; inactive. Silencing of FNTA (farnesyltransferase, CAAX box, subunit alpha) [SID135621651] came out at: viability hit class no change; caspase hit class no change; viability robust z-score 1.58; caspase robust z-score -0.02; inactive.

Against SF1 (splicing factor 1) [SID134316924], the values are viability hit class no change; caspase hit class no change; viability robust z-score -0.17; caspase robust z-score 0.04; inactive. After knock-down of SLC25A24 [SID152150584] the results were viability hit class no change; caspase hit class no change; viability robust z-score -1.31; caspase robust z-score -0.66; inactive.

Quoted from the listing for reference:
SLC35G2 [SID152150458]: viability hit class = no change; caspase hit class = no change; viability robust z-score = 0.13; caspase robust z-score = -0.48; Call = inactive
HYCC2 (hyccin PI4KA lipid kinase complex subunit 2) [SID152151423]: viability hit class = no change; caspase hit class = no change; viability robust z-score = -1.16; caspase robust z-score = -0.17; Call = inactive

The list goes on:
Silencing of DGKH (diacylglycerol kinase eta) [SID134311961] came out at: viability hit class no change; caspase hit class no change; viability robust z-score -0.76; caspase robust z-score 2.05; inactive. Depletion of PPAN-P2RY11 (PPAN-P2RY11 readthrough) [SID135625685] gave: viability hit class no change; caspase hit class no change; viability robust z-score -1.73; caspase robust z-score 0.91; inactive. After knock-down of ZDHHC3 (zDHHC palmitoyltransferase 3) [SID134313545], the screen gave viability hit class no change; caspase hit class no change; viability robust z-score -0.79; caspase robust z-score 1.7; inactive. For DNMT3L (DNA methyltransferase 3 like) [SID135622573] the deposit lists viability hit class no change; caspase hit class no change; viability robust z-score -0.46; caspase robust z-score 1.33; inactive.
